Consider 1 substance from patent publication US20240108722A1, “TUMOR-INFILTRATING LYMPHOCYTES WITH MEMBRANE BOUND INTERLEUKIN 15 AND USES THEREOF” (OBSIDIAN THERAPEUTICS, INC., priority 2021, published 2024).

The chains behind the UniProt entries cited, without tags or fusion partners. Residues count along the entry.
UniProt Q13261, residues 31-205: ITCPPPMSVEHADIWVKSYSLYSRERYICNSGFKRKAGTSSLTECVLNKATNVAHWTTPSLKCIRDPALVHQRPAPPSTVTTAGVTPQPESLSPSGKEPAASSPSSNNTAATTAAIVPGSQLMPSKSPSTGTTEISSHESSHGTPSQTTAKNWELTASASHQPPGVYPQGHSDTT

The target in this experiment is constitutive membrane-bound IL15 (OT-IL15-292) expressed on TILs (human). Nature of the experiment: flow cytometry on transduced TILs, biotinylated IL15RaFc with streptavidin-BV421. (In general: A flow cytometer gives signals particle by particle.)

These are yes or no findings as the source states them, for the method shown. Some entries that bind do so weakly or less than the wild type.

In the case of “IL15RaFc-Biotin (ACRO Biosystems) (from UniProt Q13261 31-205) (Fc fusion)”, the binding entry is reported as “binds”.
